These are yes or no findings as the source states them, for the method shown. In cells and extracts the contact can be indirect. These calls come from enrichment with a bait or labelling near it, and not all partners need be listed.
Target: FLAG-UTX (UniProt O15550)
Test: affinity purification with mass spectrometry

The chains behind the UniProt entries cited, without tags or fusion partners.
UniProt O15550: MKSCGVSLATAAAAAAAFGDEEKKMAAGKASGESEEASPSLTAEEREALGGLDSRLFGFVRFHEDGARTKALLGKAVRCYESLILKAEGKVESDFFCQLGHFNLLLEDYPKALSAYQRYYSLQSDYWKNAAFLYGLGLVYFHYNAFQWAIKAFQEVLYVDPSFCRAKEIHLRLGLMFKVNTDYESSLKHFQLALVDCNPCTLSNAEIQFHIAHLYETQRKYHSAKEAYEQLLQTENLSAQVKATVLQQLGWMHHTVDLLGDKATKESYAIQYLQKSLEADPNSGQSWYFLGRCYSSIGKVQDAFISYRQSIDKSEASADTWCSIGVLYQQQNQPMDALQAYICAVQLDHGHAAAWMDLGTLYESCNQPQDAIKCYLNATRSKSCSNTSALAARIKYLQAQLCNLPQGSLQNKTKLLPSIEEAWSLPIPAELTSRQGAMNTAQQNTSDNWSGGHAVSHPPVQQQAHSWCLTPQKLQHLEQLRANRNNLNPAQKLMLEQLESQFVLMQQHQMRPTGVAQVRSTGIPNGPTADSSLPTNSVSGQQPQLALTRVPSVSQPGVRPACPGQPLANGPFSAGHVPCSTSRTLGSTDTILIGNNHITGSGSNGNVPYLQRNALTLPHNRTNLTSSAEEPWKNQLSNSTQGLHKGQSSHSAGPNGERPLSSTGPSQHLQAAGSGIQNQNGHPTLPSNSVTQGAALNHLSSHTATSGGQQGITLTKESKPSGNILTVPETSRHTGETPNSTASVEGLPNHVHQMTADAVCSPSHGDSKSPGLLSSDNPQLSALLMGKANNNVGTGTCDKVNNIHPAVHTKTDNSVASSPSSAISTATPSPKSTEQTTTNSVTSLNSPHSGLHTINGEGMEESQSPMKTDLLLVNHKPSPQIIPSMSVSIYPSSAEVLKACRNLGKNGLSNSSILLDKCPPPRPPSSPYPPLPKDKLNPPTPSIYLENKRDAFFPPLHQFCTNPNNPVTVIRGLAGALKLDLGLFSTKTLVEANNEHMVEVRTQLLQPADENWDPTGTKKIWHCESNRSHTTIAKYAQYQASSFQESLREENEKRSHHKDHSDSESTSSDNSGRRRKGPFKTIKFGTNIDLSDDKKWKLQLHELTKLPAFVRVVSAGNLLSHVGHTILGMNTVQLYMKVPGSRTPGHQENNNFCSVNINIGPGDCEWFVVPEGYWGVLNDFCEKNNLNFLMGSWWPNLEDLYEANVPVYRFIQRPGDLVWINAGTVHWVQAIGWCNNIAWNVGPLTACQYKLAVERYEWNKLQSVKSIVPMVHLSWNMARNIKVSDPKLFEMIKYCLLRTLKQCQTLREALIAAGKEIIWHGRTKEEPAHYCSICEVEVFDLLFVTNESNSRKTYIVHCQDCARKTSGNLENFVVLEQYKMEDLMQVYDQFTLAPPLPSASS

binding: binds
B1: ELMSAN1 (protein, UniProt Q6PJG2 1-1045)
chain: MNLQAQPKAQNKRKRCLFGGQEPAPKEQPPPLQPPQQSIRVKEEQYLGHEGPGGAVSTSQPVELPPPSSLALLNSVVYGPERTSAAMLSQQVASVKWPNSVMAPGRGPERGGGGGVSDSSWQQQPGQPPPHSTWNCHSLSLYSATKGSPHPGVGVPTYYNHPEALKREKAGGPQLDRYVRPMMPQKVQLEVGRPQAPLNSFHAAKKPPNQSLPLQPFQLAFGHQVNRQVFRQGPPPPNPVAAFPPQKQQQQQQPQQQQQQQQAALPQMPLFENFYSMPQQPSQQPQDFGLQPAGPLGQSHLAHHSMAPYPFPPNPDMNPELRKALLQDSAPQPALPQVQIPFPRRSRRLSKEGILPPSALDGAGTQPGQEATGNLFLHHWPLQQPPPGSLGQPHPEALGFPLELRESQLLPDGERLAPNGREREAPAMGSEEGMRAVSTGDCGQVLRGGVIQSTRRRRRASQEANLLTLAQKAVELASLQNAKDGSGSEEKRKSVLASTTKCGVEFSEPSLATKRAREDSGMVPLIIPVSVPVRTVDPTEAAQAGGLDEDGKGPEQNPAEHKPSVIVTRRRSTRIPGTDAQAQAEDMNVKLEGEPSVRKPKQRPRPEPLIIPTKAGTFIAPPVYSNITPYQSHLRSPVRLADHPSERSFELPPYTPPPILSPVREGSGLYFNAIISTSTIPAPPPITPKSAHRTLLRTNSAEVTPPVLSVMGEATPVSIEPRINVGSRFQAEIPLMRDRALAAADPHKADLVWQPWEDLESSREKQRQVEDLLTAACSSIFPGAGTNQELALHCLHESRGDILETLNKLLLKKPLRPHNHPLATYHYTGSDQWKMAERKLFNKGIAIYKKDFFLVQKLIQTKTVAQCVEFYYTYKKQVKIGRNGTLTFGDVDTSDEKSAQEEVEVDIKTSQKFPRVPLPRRESPSEERLEPKREVKEPRKEGEEEVPEIQEKEEQEEGRERSRRAAAVKATQTLQANESASDILILRSHESNAPGSAGGQASEKPREGTGKSRRALPFSEKKKKTETFSKTQNQENTFPCKKCGR

Source: publication doi:10.1101/2021.12.17.473155
